The values below come from patent US20040038290A1 (ROCKEFELLER UNIVERSITY, published 2004).

Results are given in words; binding and its absence hold for the method and conditions named. For some of these results: Binding seen in cells or lysates may run through a third protein. Some entries that bind do so weakly or less than the wild type. For some of these results: Where a sequence is shown, tags or fusion partners need not be part of it.

Experiment [1] has as its target T1, Aquifex aeolicus tau subunit of DNA polymerase III (Aquifex aeolicus).
T1 sequence: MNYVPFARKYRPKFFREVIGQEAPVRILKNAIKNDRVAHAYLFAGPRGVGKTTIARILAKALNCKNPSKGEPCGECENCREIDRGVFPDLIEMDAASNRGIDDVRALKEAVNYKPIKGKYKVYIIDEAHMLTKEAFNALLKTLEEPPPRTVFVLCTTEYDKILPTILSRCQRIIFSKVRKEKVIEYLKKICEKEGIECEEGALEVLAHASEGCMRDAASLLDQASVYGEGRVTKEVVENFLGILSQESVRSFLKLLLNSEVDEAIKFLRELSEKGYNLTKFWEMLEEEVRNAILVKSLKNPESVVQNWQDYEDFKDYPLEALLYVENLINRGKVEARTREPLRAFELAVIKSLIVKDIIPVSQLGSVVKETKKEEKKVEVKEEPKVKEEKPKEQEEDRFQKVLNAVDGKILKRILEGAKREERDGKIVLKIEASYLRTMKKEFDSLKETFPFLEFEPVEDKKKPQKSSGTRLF
The experiment can be described thus: MonoQ co-elution of mixed pure subunits, SDS gel.

The target of experiment [2] is T2, Aquifex aeolicus δ′ subunit of DNA polymerase III (Aquifex aeolicus).
T2 sequence: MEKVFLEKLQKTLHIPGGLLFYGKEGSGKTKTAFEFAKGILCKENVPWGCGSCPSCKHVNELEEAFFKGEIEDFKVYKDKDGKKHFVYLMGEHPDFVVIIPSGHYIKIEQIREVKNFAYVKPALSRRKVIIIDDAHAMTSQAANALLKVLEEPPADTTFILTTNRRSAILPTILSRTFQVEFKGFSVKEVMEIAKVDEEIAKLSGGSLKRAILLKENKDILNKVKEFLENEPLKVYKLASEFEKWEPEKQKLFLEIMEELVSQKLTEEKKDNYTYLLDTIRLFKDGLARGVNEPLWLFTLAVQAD
The experiment can be described thus: complex constitution from pure subunits, column chromatography.

In experiment [3] the target is T3, Aquifex aeolicus δ subunit of DNA polymerase III (Aquifex aeolicus) (UniProt O67189).
T3 sequence: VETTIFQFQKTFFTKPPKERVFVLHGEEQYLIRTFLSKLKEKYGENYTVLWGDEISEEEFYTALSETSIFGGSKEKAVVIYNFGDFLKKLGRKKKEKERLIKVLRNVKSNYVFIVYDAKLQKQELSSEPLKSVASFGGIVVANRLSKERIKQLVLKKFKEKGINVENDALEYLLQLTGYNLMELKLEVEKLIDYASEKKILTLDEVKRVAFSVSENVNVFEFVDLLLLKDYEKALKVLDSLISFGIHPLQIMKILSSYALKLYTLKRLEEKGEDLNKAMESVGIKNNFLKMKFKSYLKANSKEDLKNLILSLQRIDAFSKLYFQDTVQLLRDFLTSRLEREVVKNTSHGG
The description is as above.

Experiment [4] concerns the target T4, His-tagged recombinant Thermus thermophilus tau subunit (dnaX full length product) (Thermus thermophilus).
T4 sequence: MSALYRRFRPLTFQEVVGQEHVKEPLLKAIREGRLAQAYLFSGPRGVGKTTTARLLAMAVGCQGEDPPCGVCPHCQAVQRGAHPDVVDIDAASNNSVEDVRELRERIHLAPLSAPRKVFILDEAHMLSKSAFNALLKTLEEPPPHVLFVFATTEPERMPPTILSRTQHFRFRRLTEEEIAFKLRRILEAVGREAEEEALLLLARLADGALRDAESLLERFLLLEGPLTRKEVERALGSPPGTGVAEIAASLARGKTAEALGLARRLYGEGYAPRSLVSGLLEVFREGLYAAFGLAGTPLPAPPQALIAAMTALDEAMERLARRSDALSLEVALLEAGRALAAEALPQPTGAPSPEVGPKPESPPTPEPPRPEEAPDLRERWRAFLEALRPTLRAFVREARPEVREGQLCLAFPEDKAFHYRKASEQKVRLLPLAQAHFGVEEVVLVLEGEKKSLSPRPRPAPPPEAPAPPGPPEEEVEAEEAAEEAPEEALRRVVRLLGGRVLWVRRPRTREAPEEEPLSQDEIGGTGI
The experiment can be described thus: Superose 12 gel filtration. (In gel filtration, larger molecules generally elute earlier.)

B1: Aquifex aeolicus δ′ subunit of DNA polymerase III (protein)
chain: MEKVFLEKLQKTLHIPGGLLFYGKEGSGKTKTAFEFAKGILCKENVPWGCGSCPSCKHVNELEEAFFKGEIEDFKVYKDKDGKKHFVYLMGEHPDFVVIIPSGHYIKIEQIREVKNFAYVKPALSRRKVIIIDDAHAMTSQAANALLKVLEEPPADTTFILTTNRRSAILPTILSRTFQVEFKGFSVKEVMEIAKVDEEIAKLSGGSLKRAILLKENKDILNKVKEFLENEPLKVYKLASEFEKWEPEKQKLFLEIMEELVSQKLTEEKKDNYTYLLDTIRLFKDGLARGVNEPLWLFTLAVQAD
For the molecule B1, in experiment [1], the binding result is “binds”.

B2: Aquifex aeolicus tau subunit of DNA polymerase III (other)
chain: MNYVPFARKYRPKFFREVIGQEAPVRILKNAIKNDRVAHAYLFAGPRGVGKTTIARILAKALNCKNPSKGEPCGECENCREIDRGVFPDLIEMDAASNRGIDDVRALKEAVNYKPIKGKYKVYIIDEAHMLTKEAFNALLKTLEEPPPRTVFVLCTTEYDKILPTILSRCQRIIFSKVRKEKVIEYLKKICEKEGIECEEGALEVLAHASEGCMRDAASLLDQASVYGEGRVTKEVVENFLGILSQESVRSFLKLLLNSEVDEAIKFLRELSEKGYNLTKFWEMLEEEVRNAILVKSLKNPESVVQNWQDYEDFKDYPLEALLYVENLINRGKVEARTREPLRAFELAVIKSLIVKDIIPVSQLGSVVKETKKEEKKVEVKEEPKVKEEKPKEQEEDRFQKVLNAVDGKILKRILEGAKREERDGKIVLKIEASYLRTMKKEFDSLKETFPFLEFEPVEDKKKPQKSSGTRLF
notes: Recombinant, expressed in E. coli from pETAadnaX (pET24); also called A.ae. tau
With B2, the binding entry in experiment [2] and in experiment [3] was “binds” each time.

B3: His-tagged recombinant Thermus thermophilus γ subunit (dnaX frameshift product) (protein, not shown: small tags and cut ends)
chain: MSALYRRFRPLTFQEVVGQEHVKEPLLKAIREGRLAQAYLFSGPRGVGKTTTARLLAMAVGCQGEDPPCGVCPHCQAVQRGAHPDVVDIDAASNNSVEDVRELRERIHLAPLSAPRKVFILDEAHMLSKSAFNALLKTLEEPPPHVLFVFATTEPERMPPTILSRTQHFRFRRLTEEEIAFKLRRILEAVGREAEEEALLLLARLADGALRDAESLLERFLLLEGPLTRKEVERALGSPPGTGVAEIAASLARGKTAEALGLARRLYGEGYAPRSLVSGLLEVFREGLYAAFGLAGTPLPAPPQALIAAMTALDEAMERLARRSDALSLEVALLEAGRALAAEALPQPTGAPSPEVGPKPESPPTPEPPRPEEAPDLRERWRAFLEALRPTLRAFVREARPEVREGQLCLAFPEDKAFHYRKASEQKVRLLPLAQAHFGVEEVVLVLEGEKKKA
Turning to B3, the binding entry in experiment [4] was “binds”.
